In publication PMC10620963, “Two-carbon tethered artemisinin–isatin hybrids: design, synthesis, anti-breast cancer potential, and in silico study” (Frontiers in Molecular Biosciences, 2023):

System: MDA-MB-231/ADR (Adriamycin-resistant MDA-MB-231 cell line)
Test: MTT antiproliferative assay, MDA-MB-231/ADR
Assay type: cell-based, human
Procedure: The antiproliferative activity and cytotoxicity of ART–isatin hybrids 4a–k against MCF-7 (CL-0149, purchased from Procell), MDA-MB-231 (CL-0150A, purchased from Procell), and MDA-MB-231/ADR (AC337895, purchased from CASMART) breast cancer cell lines, as well as MCF-10A (CL-0525, purchased from Procell), were assessed by the 3-(4,5-dimethylthiazol-2-yl)-2,5-diphenyltetrazolium bromide (MTT) assay. ART, DHA, and Adriamycin (ADR) were used as positive controls. The selectivity index (SI: IC50(MCF-10A)/IC50(MCF-7)) and resistance index (RI: IC50(MDA-MB-231/ADR)/IC50(MDA-MB-231)) are presented in Table 3.
MCF-7, MDA-MB-231 and MDA-MB-231/ADR breast cancer cells (2×10^3) were plated in each well of a 96-well plate and were allowed to adhere and spread for 24 h. Cells were treated with a range of different concentrations of ART-isatin hybrids 4a-k (1, 5, 10, 20, 50, 100 µM) and reference drugs artemisinin, dihydroartemisinin, and adriamycin (1, 5, 10, 20, 50, 100 µM) and were cultured for 24 h at 37 °C. 3-(4,5-dimethyl-2-thiazolyl)-2,5-diphenyltetrazolium bromide (MTT) solution (10 µL) was added to each well, and the cultures were incubated for an additional 4 h. A further 100 µL of […] was added and incubation continued overnight. The absorbance was read at 540 nm in EnSpire, multimode reader and IC50 concentration was calculated and indicated as means SD of three in-dependent experiments. The percentage relative cell viability was determined according to the following formula: Percentage cell viability = A at 570 nm of treated samples/A at 570 nm of untreated samples × 100.
The statistical analysis was performed using Excel © and IC50 values were estimated using GraphpadPrism5 software (Hearne Scientific Software). The experiments were performed in duplicate and the statistical significance was calculated using the student’s t-test. A p-value of less than 0.05 was used to estimate the significance of the observations. A Z-factor was calculated for each 96-well plate and assays having Z-factor above 0.05 were included in the statistical analysis.

With `C[C@@H]1CC[C@H]2[C@@H](C)C(=O)O[C@@H]3O[C@@]4(C)CC[C@@H]1[C@]32OO4` [ART, artemisinin] the “RI, resistance index, IC50(MDA-MB-231/ADR)/IC50(MDA-MB-231)” value was > 1.38.

Going from `C[C@H]1[C@@H](O)O[C@@H]2O[C@@]3(C)CC[C@H]4[C@H](C)CC[C@@H]1[C@@]24OO3` [DHA, dihydroartemisinin, reference compound] to `C[C@@H]1CC[C@H]2[C@@H](C)C(OCCN3C(=O)C(=O)c4ccccc43)O[C@@H]3O[C@@]4(C)CC[C@@H]1[C@]32OO4` (stereo partly drawn) [Hybrid 4a, 1-(2-(((3R,5aS,6R,8aS,9R,12R,12aR)-3,6,9-trimethyldecahydro-12H-3,12-epoxy[1,2]dioxepino[4,3-i]isochromen-10-yl)oxy)ethyl)indoline-2,3-dione], the “RI, resistance index, IC50(MDA-MB-231/ADR)/IC50(MDA-MB-231)” value falls from 1.18 to 0.65.

Compared with `C[C@@H]1CC[C@H]2[C@@H](C)C(OCCN3C(=O)C(=O)c4cc(F)ccc43)O[C@@H]3O[C@@]4(C)CC[C@@H]1[C@]32OO4` (stereo partly drawn) [Hybrid 4b, 5-fluoro-1-(2-(((3R,5aS,6R,8aS,9R,12R,12aR)-3,6,9-trimethyldecahydro-12H-3,12-epoxy[1,2]dioxepino[4,3-i]isochromen-10-yl)oxy)ethyl)indoline-2,3-dione], `COc1ccc2c(c1)C(=O)C(=O)N2CCOC1O[C@@H]2O[C@@]3(C)CC[C@H]4[C@H](C)CC[C@@H]([C@H]1C)[C@@]24OO3` (stereo partly drawn) [Hybrid 4c, 5-methoxy-1-(2-(((3R,5aS,6R,8aS,9R,12R,12aR)-3,6,9-trimethyldecahydro-12H-3,12-epoxy[1,2]dioxepino[4,3-i]isochromen-10-yl)oxy)ethyl)indoline-2,3-dione] is lower in “RI, resistance index, IC50(MDA-MB-231/ADR)/IC50(MDA-MB-231)” value: 1.15 for the first, 0.93 for the second.

Going from `CON=C1C(=O)N(CCOC2O[C@@H]3O[C@@]4(C)CC[C@H]5[C@H](C)CC[C@@H]([C@H]2C)[C@@]35OO4)c2ccccc21` (stereo partly drawn) [Hybrid 4d, 3-(methoxyimino)-1-(2-(((3R,5aS,6R,8aS,9R,12R,12aR)-3,6,9-trimethyldecahydro-12H-3,12-epoxy[1,2]dioxepino[4,3-i]isochromen-10-yl)oxy)ethyl)indolin-2-one] to `CCON=C1C(=O)N(CCOC2O[C@@H]3O[C@@]4(C)CC[C@H]5[C@H](C)CC[C@@H]([C@H]2C)[C@@]35OO4)c2ccccc21` (stereo partly drawn) [Hybrid 4g, 3-(ethoxyimino)-1-(2-(((3R,5aS,6R,8aS,9R,12R,12aR)-3,6,9-trimethyldecahydro-12H-3,12-epoxy[1,2]dioxepino[4,3-i]isochromen-10-yl)oxy)ethyl)indolin-2-one], the “RI, resistance index, IC50(MDA-MB-231/ADR)/IC50(MDA-MB-231)” value falls from 1.22 to 0.75.

Going from `CO/N=C1/C(=O)N(CCOC2O[C@@H]3O[C@@]4(C)CC[C@H]5[C@H](C)CC[C@@H]([C@H]2C)[C@@]35OO4)c2ccc(F)cc21` (stereo partly drawn) [Hybrid 4e, (E)-5-fluoro-3-(methoxyimino)-1-(2-(((3R,5aS,6R,8aS,9R,12R,12aR)-3,6,9-trimethyldecahydro-12H-3,12-epoxy[1,2]dioxepino[4,3-i]isochromen-10-yl)oxy)ethyl)indolin-2-one] to `CCON=C1C(=O)N(CCOC2O[C@@H]3O[C@@]4(C)CC[C@H]5[C@H](C)CC[C@@H]([C@H]2C)[C@@]35OO4)c2ccc(F)cc21` (stereo partly drawn) [Hybrid 4h, 3-(ethoxyimino)-5-fluoro-1-(2-(((3R,5aS,6R,8aS,9R,12R,12aR)-3,6,9-trimethyldecahydro-12H-3,12-epoxy[1,2]dioxepino[4,3-i]isochromen-10-yl)oxy)ethyl)indolin-2-one], the “RI, resistance index, IC50(MDA-MB-231/ADR)/IC50(MDA-MB-231)” value falls from 1.30 to 1.28.

First: CON=C1C(=O)N(CCOC2O[C@@H]3O[C@@]4(C)CC[C@H]5[C@H](C)CC[C@@H]([C@H]2C)[C@@]35OO4)c2ccc(OC)cc21 (stereo partly drawn) [Hybrid 4f, 5-methoxy-3-(methoxyimino)-1-(2-(((3R,5aS,6R,8aS,9R,12R,12aR)-3,6,9-trimethyldecahydro-12H-3,12-epoxy[1,2]dioxepino[4,3-i]isochromen-10-yl)oxy)ethyl)indolin-2-one]
Second: CCON=C1C(=O)N(CCOC2O[C@@H]3O[C@@]4(C)CC[C@H]5[C@H](C)CC[C@@H]([C@H]2C)[C@@]35OO4)c2ccc(OC)cc21 (stereo partly drawn) [Hybrid 4i, 3-(ethoxyimino)-5-methoxy-1-(2-(((3R,5aS,6R,8aS,9R,12R,12aR)-3,6,9-trimethyldecahydro-12H-3,12-epoxy[1,2]dioxepino[4,3-i]isochromen-10-yl)oxy)ethyl)indolin-2-one]
The “RI, resistance index, IC50(MDA-MB-231/ADR)/IC50(MDA-MB-231)” value of the first is higher: 1.66 for the first, 1.04 for the second.
